Test results as given in patent US12246011B2, “Radiation mitigator and method of use thereof” (Georgetown University, priority 2016, dated 2025).
At least one compound was matched to its structure with a doubt left.

Tests used:
C57BL/6 mice = assay: Barrier function study (intestinal epithelial permeability to FITC-dextran) after 14 Gy TBI; type: in vivo; conditions: three doses of 10 mg/kg body weight per day beginning 24 h post-IR, serum FITC 5 d post-IR
Experimental: Gamma radiation: 7-week-old C57BL/6 mice were exposed to total body irradiation (TBI) 14 Gy gamma ionizing radiation (IR) with air pumped into the chamber during. A Gammacell 40 ^137Cs gamma irradiator was used with a dose rate of 0.8 Gy IR per minute. Dosimetry measurements were performed using Fricke Dosimetry systems. Measured absorbance dose was: Central Dose Rate (0.790 Gy/min±2.9%); 3 o'clock position (0.804 Gy/min±3.8%); and 7 o'clock position (0.808 Gy/min±2.7%). The experiments were performed within 6 months of the dosimetry analysis. All IR treatments were begun in the morning. […] All animals received easy access to liquid gel food and water in the cage.
Barrier function study: Two hours before euthanasia (5 d post-IR), each mouse was orally administered (gavage) with 100 μL of FITC-dextran (FITC dextran 4; MW 4000) at a dose of 80 mg/100 g body weight. Serum analysis of FITC concentration was performed in triplicate using Synergy Bio TEK plate reader.
Gamma radiation: 7-week-old C57BL/6 mice were exposed to total body irradiation (TBI) 14 Gy gamma ionizing radiation (IR) with air pumped into the chamber during. A Gammacell 40 ^137Cs gamma irradiator was used with a dose rate of 0.8 Gy IR per minute. […] Measured absorbance dose was: Central Dose Rate (0.790 Gy/min±2.9%); 3 o'clock position (0.804 Gy/min±3.8%); and 7 o'clock position (0.808 Gy/min±2.7%). […]

[1] = test system: YAMC (normal colonic epithelial cell line); assay: Clonogenic assay for self-renewal (spheroid formation) after 4 Gy IR; type: cell-based, Murine; conditions: treatment 24 h post-IR at 10 μM, 100 μM and 1 mM, spheroids counted at end of 192 h
Experimental: (§1) Gamma radiation: YAMC (normal colonic epithelial cell line) were exposed to 4 Gy gamma ionizing radiation (IR) with air pumped into the chamber during exposure. A Gammacell 40 ^137Cs gamma irradiator was used with a dose rate of 0.8 Gy IR per minute. Dosimetry measurements were performed using Fricke Dosimetry systems. Measured absorbance dose was: Central Dose Rate (0.790 Gy/min±2.9%); 3 o'clock position (0.804 Gy/min±3.8%); and 7 o'clock position (0.808 Gy/min±2.7%). The experiments were performed within 6 months of the dosimetry analysis.
Clonogenic assay for self-renewal: Self-renewal is the hallmark for stem cells or stem-like cells. Clonogenic assay or clonal expansion of single cell into spheroids/organoids is the reputed method to analyze cell self-renewal. […] At the end of 192 h, spheroids were counted for quantitative assessment of the number of spheroids formed.
Gamma radiation: YAMC (normal colonic epithelial cell line) were exposed to 4 Gy gamma ionizing radiation (IR) with air pumped into the chamber during exposure. […] Measured absorbance dose was: Central Dose Rate (0.790 Gy/min±2.9%); 3 o'clock position (0.804 Gy/min±3.8%); and 7 o'clock position (0.808 Gy/min±2.7%). […]
Clonogenic assay for self-renewal: Self-renewal is the hallmark for stem cells or stem-like cells. […] At the end of 192 h, spheroids were counted for quantitative assessment of the number of spheroids formed. […]

[2] = test system: YAMC (normal colonic epithelial cell line); assay: Colony forming assay (cell survival) after 4 Gy IR; type: cell-based, Murine; conditions: treatment 24 h post-IR at 10 μM, 100 μM and 1 mM, colonies counted at end of 96 h
Experimental: as §1
Colony forming assay: Colony forming assay is universally recognized as the gold standard method for measuring the effects of radiation, chemotherapeutic drugs on cell viability, and cell survival. […] At the end of 96 h, cells were fixed and counted for number of colonies formed. The number of colonies formed represents the number of cells survived.
as §1, with “The experiments were performed within 6 months of the dosimetry analysis.” left out

Question: How did the “intestinal epithelial permeability to FITC-dextran versus vehicle control” value (C57BL/6 mice) turn out when `CCCc1nc2c(C)cc(-c3nc4ccccc4n3C)cc2n1Cc1ccc(-c2ccccc2C(=O)OC2CC(C)(C)N([O])C(C)(C)C2)cc1` [YK-4-250] was run?
Answer: Its value is “essentially the same”.

Question: What about the “self-renewal ability of YAMC cells (number of spheroids formed) compared to vehicle treatment” value [1] of the same compound?
Answer: The value was “significantly increased”.

Question: And the “YAMC cell survival (number of colonies formed) compared to vehicle treatment” value [2]?
Answer: Its value is “significantly increased”.
